Results are given in words; binding and its absence hold for the method and conditions named. Some entries that bind do so weakly or less than the wild type.
Target: cynomolgus monkey PRL (cynomolgus monkey)
Assay: bio-layer interferometry

B1: Antibody 37 (antibody, human IgG4 S228P, kappa, V domains shown)
VH: QVQLVQSGAEVKKPGASVKVSCKASGYTFSNFWIEWVRQAPGQRLEWMGEIFPGTGSTYYTEKFKVRVTITRDTSASTAYMELSSLRSEDTAVYYCARRGYSDSWFAHWGQGTLVTVSS
VL: DIQMTQSPSSLSASVGDRVTITCRASESVDMYGKSFMHWYQQKPGKAPKLLIYRASTLESGVPSRFSGSGSGTDFTLTISSLQPEDFATYYCQQNVEAPLTFGGGTKVEIKR
notes: Humanized IgG4(S228P), IGHV1-3 heavy and IGKV1-39 light frameworks; also called humanized anti-hPRL antibody
Q: Which binding does the source give for B1 here?
A: binds

— EP4428150A1 (Peptide Logic LLC, dated 2024)
